# PubChem BioAssay AID1259254, NCATS | 2017
# Assay: 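Gene knock-downs that lead to re-replication, shown by excess G2 DNA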 (primary screen)
# Cell system: human HCT116 colorectal cancer cells
# Knock-down reagent: single siRNA against human genes
# Timing: 3 days
# Read-out: 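Nuclei stained with Hoechst and imaged; cell-cycle phase assigned by DNA content; G2 share scaled per plate, non-targeting siRNA 0%, GMNN siRNA 100%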
# Scale: G2 robust z-score: higher = more G2 cells, more excess DNA replication
# Rule for the call: 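An siRNA counts as active if its G2 robust z-score lies at least 5 MADs above the screen median; here such calls match roughly 38% of GMNN control or more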
# The deposit covers about 59,000 reagents; below is a part drawn at random. About 1,550 of all reagents (2.6%) were called active. 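G2 share is only a proxy for re-replication; each gene was hit by three separate siRNAs, and active genes were retested.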 Unmarked entries are inactive. The numbers tell different reagents against one gene apart. Further read-outs or replicates are left out here. Not given: the amount of reagent.
target gene,reagent no.,G2 robust z-score
RD3L (RD3 like),1,0.487
RD3L (RD3 like),2,1.97
RD3L (RD3 like),3,-0.243
ZNF76 (zinc finger protein 76),1,-1.04
ZNF76 (zinc finger protein 76),2,3.4
ZNF76 (zinc finger protein 76),3,0.744
C19orf12 (chromosome 19 open reading frame 12),1,1.93
C19orf12 (chromosome 19 open reading frame 12),2,0.883
C19orf12 (chromosome 19 open reading frame 12),3,-0.0516
BARHL1 (BarH like homeobox 1),1,0.467
BARHL1 (BarH like homeobox 1),2,-1.06
BARHL1 (BarH like homeobox 1),3,0.197
ATPSCKMT (ATP synthase c subunit lysine N-methyltransferase),1,0.0339
ATPSCKMT (ATP synthase c subunit lysine N-methyltransferase),2,-0.901
ATPSCKMT (ATP synthase c subunit lysine N-methyltransferase),3,1.13
PUS3 (pseudouridine synthase 3),1,-0.521
PUS3 (pseudouridine synthase 3),2,-0.893
PUS3 (pseudouridine synthase 3),3,1.15
KATNBL1 (katanin regulatory subunit B1 like 1),1,1.4
KATNBL1 (katanin regulatory subunit B1 like 1),2,1.3
KATNBL1 (katanin regulatory subunit B1 like 1),3,0.572
APLN (apelin),1,0.562
APLN (apelin),2,0.244
APLN (apelin),3,-0.71
URM1 (ubiquitin related modifier 1),1,0.279
URM1 (ubiquitin related modifier 1),2,4.53
URM1 (ubiquitin related modifier 1),3,-0.668
ARID1B (AT-rich interaction domain 1B),1,-0.331
ARID1B (AT-rich interaction domain 1B),2,-1.19
ARID1B (AT-rich interaction domain 1B),3,-1.09
DNAH8 (dynein axonemal heavy chain 8),1,-0.0724
DNAH8 (dynein axonemal heavy chain 8),2,7.11 (active)
DNAH8 (dynein axonemal heavy chain 8),3,-0.307
UBA2 (ubiquitin like modifier activating enzyme 2),1,1.47
UBA2 (ubiquitin like modifier activating enzyme 2),2,3.66
UBA2 (ubiquitin like modifier activating enzyme 2),3,-0.672

The list goes on (7 carried over from the part before).
target gene,reagent no.,G2 robust z-score
ARID1B (AT-rich interaction domain 1B),3,-1.09
DNAH8 (dynein axonemal heavy chain 8),1,-0.0724
DNAH8 (dynein axonemal heavy chain 8),2,7.11 (active)
DNAH8 (dynein axonemal heavy chain 8),3,-0.307
UBA2 (ubiquitin like modifier activating enzyme 2),1,1.47
UBA2 (ubiquitin like modifier activating enzyme 2),2,3.66
UBA2 (ubiquitin like modifier activating enzyme 2),3,-0.672
SMOC2 (SPARC related modular calcium binding 2),1,-0.348
SMOC2 (SPARC related modular calcium binding 2),2,1.54
SMOC2 (SPARC related modular calcium binding 2),3,-0.441
TNFSF18 (TNF superfamily member 18),1,-0.88
TNFSF18 (TNF superfamily member 18),2,3.54
TNFSF18 (TNF superfamily member 18),3,-0.532
SFMBT2 (Scm like with four mbt domains 2),1,1.92
SFMBT2 (Scm like with four mbt domains 2),2,-0.973
SFMBT2 (Scm like with four mbt domains 2),3,-0.701
MAP7D2 (MAP7 domain containing 2),1,-0.772
MAP7D2 (MAP7 domain containing 2),2,-0.711
MAP7D2 (MAP7 domain containing 2),3,-0.08
AARSD1 (alanyl-tRNA synthetase domain containing 1),1,2.33
AARSD1 (alanyl-tRNA synthetase domain containing 1),2,-0.748
AARSD1 (alanyl-tRNA synthetase domain containing 1),3,-0.00881
RASAL1 (RAS protein activator like 1),1,-1.29
RASAL1 (RAS protein activator like 1),2,-0.545
RASAL1 (RAS protein activator like 1),3,-0.913
ABCC6 (ATP binding cassette subfamily C member 6),1,2.18
ABCC6 (ATP binding cassette subfamily C member 6),2,-0.105
ABCC6 (ATP binding cassette subfamily C member 6),3,2.69
CCDC178 (coiled-coil domain containing 178),1,1.6
CCDC178 (coiled-coil domain containing 178),2,-0.564
CCDC178 (coiled-coil domain containing 178),3,-0.0825
TSPAN19 (tetraspanin 19),1,-0.171
TSPAN19 (tetraspanin 19),2,-0.727
TSPAN19 (tetraspanin 19),3,4.51
EIF1AX (eukaryotic translation initiation factor 1A X-linked),1,1.84
EIF1AX (eukaryotic translation initiation factor 1A X-linked),2,0.246
EIF1AX (eukaryotic translation initiation factor 1A X-linked),3,7.28 (active)
EXOC3L2 (exocyst complex component 3 like 2),1,-0.435
EXOC3L2 (exocyst complex component 3 like 2),2,0.959
EXOC3L2 (exocyst complex component 3 like 2),3,2.8
